This is an account of results in the supplement of paper PMC10470496.

Among the test systems are C. auris AR-384; C. auris AR-386; C. auris AR-387.
Common to all, as to assay: growth relative to vehicle control (OD600 ratio) (fraction); higher = less inhibition
Common to all, as to settings: 24 h

Where a name gives a salt, the structure may show the parent alone. The list shows a part of the results. Many values rest on one well or one pass, so single values are uncertain.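 Three clinical Candida auris isolates (clades III, IV and I) from the CDC resistance isolate bank were grown in RPMI-1640 at 35°C. Growth was background-corrected OD600 relative to same-plate vehicle-only wells. Hits required over 50% inhibition in at least two strains and a plate-corrected B-score above 0.1.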

As for `CCn1cc(C(=O)O)c(=O)c2cc(F)c(N3CCNCC3)nc21` [Enoxacin], the growth is 0.88 in the test with C. auris AR-384 (1 µM); 0.68 in the test with C. auris AR-384 (10 µM); 0.76 in the test with C. auris AR-386 (1 µM); 1.06 in the test with C. auris AR-386 (10 µM); 1.16 in the test on C. auris AR-387 (1 µM); 1.07 with C. auris AR-387 (10 µM).

Regarding `CO[C@H]1C[C@@H]2CC[C@@H](C)[C@@](O)(O2)C(=O)C(=O)N2CCCC[C@H]2C(=O)O[C@H]([C@H](C)C[C@@H]2CC[C@@H](O)[C@H](OC)C2)CC(=O)[C@H](C)/C=C(\C)[C@@H](O)[C@@H](OC)C(=O)[C@H](C)C[C@H](C)/C=C/C=C/C=C/1C` [Rapamycin (Sirolimus)], the growth was 0.16 in the test with C. auris AR-384 (1 µM); 0.09 in the test with C. auris AR-384 (10 µM); 0.04 with C. auris AR-386 (1 µM); 0.12 in the test with C. auris AR-386 (10 µM); 0.08 in the test on C. auris AR-387 (1 µM); 0.08 in the test on C. auris AR-387 (10 µM).

Consider `Cc1nc(Nc2ncc(C(=O)Nc3c(C)cccc3Cl)s2)cc(N2CCN(CCO)CC2)n1` [Dasatinib Monohydrate], for which the growth in the test on C. auris AR-384 (1 µM) is 1.03; in the test with C. auris AR-384 (10 µM), 1.37; in the test on C. auris AR-386 (1 µM) it was 1.03; with C. auris AR-386 (10 µM) it was 1; in the test on C. auris AR-387 (1 µM), 0.69; in the test on C. auris AR-387 (10 µM) it was 0.95.

On to `O=C(c1ccc(OCCN2CCCCC2)cc1)c1c(-c2ccc(O)cc2)sc2cc(O)ccc12` [Raloxifene HCl], for which the growth came to 0.75 in the test with C. auris AR-384 (1 µM); 0.85 in the test on C. auris AR-384 (10 µM); 0.82 in the test on C. auris AR-386 (1 µM); 0.88 with C. auris AR-386 (10 µM); 0.91 with C. auris AR-387 (1 µM); 0.9 with C. auris AR-387 (10 µM).

As for `CNC[C@H](O)c1ccc(O)c(O)c1` [Epinephrine HCl], the growth in the test on C. auris AR-384 (1 µM) was found to be 0.79; in the test with C. auris AR-384 (10 µM) it was 0.88; with C. auris AR-386 (1 µM) it was 0.92; with C. auris AR-386 (10 µM), 0.78; with C. auris AR-387 (1 µM), 1.06; with C. auris AR-387 (10 µM), 1.02.

Take `CCc1ccc(Cc2ccc3c(c2)[C@]2(OC3)O[C@H](CO)[C@@H](O)[C@H](O)[C@H]2O)cc1` [Tofogliflozin(CSG 452)]: the growth worked out at 1.13 in the test on C. auris AR-384 (1 µM); 0.96 in the test with C. auris AR-384 (10 µM); 0.76 in the test with C. auris AR-386 (1 µM); 0.99 in the test on C. auris AR-386 (10 µM); 0.84 with C. auris AR-387 (1 µM); 1.05 in the test with C. auris AR-387 (10 µM).

`CCCSc1nc(N[C@@H]2C[C@H]2c2ccc(F)c(F)c2)c2nnn([C@@H]3C[C@H](OCCO)[C@@H](O)[C@H]3O)c2n1` [Ticagrelor]: the growth in the test on C. auris AR-384 (1 µM) came out at 1.1; with C. auris AR-384 (10 µM) it was 1.22; with C. auris AR-386 (1 µM) it was 1.12; in the test with C. auris AR-386 (10 µM), 1.1; with C. auris AR-387 (1 µM), 1.13; in the test on C. auris AR-387 (10 µM), 1.35.

Regarding `CO[C@H]1/C=C/O[C@@]2(C)Oc3c(C)c(O)c4c(O)c(c(/C=N/N5CCN(C)CC5)c(O)c4c3C2=O)NC(=O)/C(C)=C\C=C\[C@H](C)[C@H](O)[C@@H](C)[C@@H](O)[C@@H](C)[C@H](OC(C)=O)[C@@H]1C` [Rifampin], the growth with C. auris AR-384 (1 µM) was found to be 1.16; with C. auris AR-384 (10 µM), 0.91; with C. auris AR-386 (1 µM) it was 0.8; in the test with C. auris AR-386 (10 µM) it was 0.77; with C. auris AR-387 (1 µM), 1.02; in the test with C. auris AR-387 (10 µM) it was 0.9.

For the compound `CCC(=O)O[C@]1(C(=O)CCl)[C@@H](C)C[C@H]2[C@@H]3CCC4=CC(=O)C=C[C@]4(C)[C@@]3(F)[C@@H](O)C[C@@]21C` [Clobetasol propionate], the growth in the test on C. auris AR-384 (1 µM) came out at 1.04; with C. auris AR-384 (10 µM), 0.93; in the test with C. auris AR-386 (1 µM) it was 0.87; with C. auris AR-386 (10 µM) it was 0.95; in the test on C. auris AR-387 (1 µM) it was 0.85; with C. auris AR-387 (10 µM), 0.83.

For `CCCSc1ccc2[nH]c(NC(=O)OC)nc2c1` [Albendazole], the growth in the test on C. auris AR-384 (1 µM) amounted to 0.68; in the test on C. auris AR-384 (10 µM), 0.61; in the test with C. auris AR-386 (1 µM) it was 0.44; with C. auris AR-386 (10 µM), 0.95; in the test with C. auris AR-387 (1 µM), 0.69; in the test on C. auris AR-387 (10 µM), 0.8.

As to `CC(C)(O)CNc1nc(Nc2ccnc(C(F)(F)F)c2)nc(-c2cccc(C(F)(F)F)n2)n1` [Enasidenib (AG-221)], the growth was 1.39 in the test with C. auris AR-384 (1 µM); 1.38 in the test with C. auris AR-384 (10 µM); 1.37 with C. auris AR-386 (1 µM); 1.5 in the test on C. auris AR-386 (10 µM); 1.53 in the test on C. auris AR-387 (1 µM); 1.5 in the test with C. auris AR-387 (10 µM).

As for `CNC(=O)c1cc(Oc2ccc(NC(=O)Nc3ccc(Cl)c(C(F)(F)F)c3)cc2)ccn1` [Sorafenib], the growth in the test with C. auris AR-384 (1 µM) stood at 1.31; in the test on C. auris AR-384 (10 µM), 1.21; in the test on C. auris AR-386 (1 µM), 1.01; with C. auris AR-386 (10 µM), 1.13; with C. auris AR-387 (1 µM) it was 1.17; in the test on C. auris AR-387 (10 µM) it was 1.21.

For the compound `C[C@@H](c1nc(-c2ccc(C#N)cc2)cs1)[C@](O)(Cn1cncn1)c1cc(F)ccc1F` [Isavuconazole], the growth worked out at 0.41 with C. auris AR-384 (1 µM); 0.29 in the test on C. auris AR-384 (10 µM); 0.21 in the test on C. auris AR-386 (1 µM); 0.01 with C. auris AR-386 (10 µM); 0.03 in the test on C. auris AR-387 (1 µM); 0.01 in the test with C. auris AR-387 (10 µM).

Turning to `CCS(=O)(=O)N1CC(CC#N)(n2cc(-c3ncnc4[nH]ccc34)cn2)C1`, the growth is 0.94 in the test with C. auris AR-384 (1 µM); 0.78 with C. auris AR-384 (10 µM); 0.48 in the test on C. auris AR-386 (1 µM); 0.84 with C. auris AR-386 (10 µM); 0.83 with C. auris AR-387 (1 µM); 1.06 in the test on C. auris AR-387 (10 µM).

As to `OC(CCN1CCCCC1)(c1ccccc1)C1CCCCC1` (configuration not stated) [Trihexyphenidyl hydrochloride], the growth was 0.9 in the test on C. auris AR-384 (1 µM); 0.88 with C. auris AR-384 (10 µM); 0.94 in the test with C. auris AR-386 (1 µM); 0.91 with C. auris AR-386 (10 µM); 0.7 with C. auris AR-387 (1 µM); 1.16 with C. auris AR-387 (10 µM).

With `O=c1sn(-c2cccc3ccccc23)c(=O)n1Cc1ccccc1` [Tideglusib], the growth in the test with C. auris AR-384 (1 µM) was determined as 0.91; with C. auris AR-384 (10 µM), 0.72; in the test with C. auris AR-386 (1 µM), 0.6; with C. auris AR-386 (10 µM), 0.72; with C. auris AR-387 (1 µM), 0.73; in the test with C. auris AR-387 (10 µM) it was 0.92.

As for `CC(C)(C)c1cc(C(C)(C)C)c(NC(=O)c2c[nH]c3ccccc3c2=O)cc1O` [Ivacaftor (VX-770)], the growth with C. auris AR-384 (1 µM) is 1.04; with C. auris AR-384 (10 µM), 1.13; in the test on C. auris AR-386 (1 µM), 1.33; with C. auris AR-386 (10 µM), 1.08; in the test on C. auris AR-387 (1 µM) it was 1.29; with C. auris AR-387 (10 µM) it was 1.28.

Regarding `CN1CCC[C@@H]1CCO[C@](C)(c1ccccc1)c1ccc(Cl)cc1` [Clemastine Fumarate], the growth with C. auris AR-384 (1 µM) worked out at 0.91; in the test with C. auris AR-384 (10 µM) it was 0.85; in the test on C. auris AR-386 (1 µM), 0.95; in the test with C. auris AR-386 (10 µM), 0.81; in the test on C. auris AR-387 (1 µM), 1.21; in the test with C. auris AR-387 (10 µM) it was 1.02.

For `CCCCOc1ccc(OCCCN2CCOCC2)cc1` [Pramoxine HCl], the growth in the test on C. auris AR-384 (1 µM) came to 1.1; in the test on C. auris AR-384 (10 µM) it was 0.85; in the test with C. auris AR-386 (1 µM), 1.34; in the test with C. auris AR-386 (10 µM) it was 0.64; with C. auris AR-387 (1 µM), 0.88; in the test on C. auris AR-387 (10 µM) it was 0.78.

Take `COC(=O)C1=C(C)NC(C)=C(C(=O)OCCN(C)Cc2ccccc2)C1c1cccc([N+](=O)[O-])c1` (configuration not stated) [Nicardipine HCl]: the growth with C. auris AR-384 (1 µM) is 0.85; with C. auris AR-384 (10 µM), 1.04; with C. auris AR-386 (1 µM), 1.11; in the test with C. auris AR-386 (10 µM), 1.34; with C. auris AR-387 (1 µM), 0.94; in the test on C. auris AR-387 (10 µM), 1.22.

Consider `CC1=NN(c2ccc(C)c(C)c2)C(=O)/C1=N\Nc1cccc(-c2cccc(C(=O)O)c2)c1O` [Eltrombopag Olamine], for which the growth was found to be 0.76 with C. auris AR-384 (1 µM); 0.8 in the test with C. auris AR-384 (10 µM); 0.73 in the test with C. auris AR-386 (1 µM); 1.05 with C. auris AR-386 (10 µM); 0.96 with C. auris AR-387 (1 µM); 0.8 in the test on C. auris AR-387 (10 µM).

As for `COc1ccc([C@H]2CNC(=O)C2)cc1OC1CCCC1` [S- (+)-Rolipram], the growth with C. auris AR-384 (1 µM) turned out to be 0.79; with C. auris AR-384 (10 µM), 0.67; in the test on C. auris AR-386 (1 µM) it was 0.85; in the test with C. auris AR-386 (10 µM), 0.76; in the test on C. auris AR-387 (1 µM), 0.82; with C. auris AR-387 (10 µM) it was 0.61.
